# From the supplement of paper PMC8728848
# Some of the results follow.
# Experiments:
# Test in all cases: glycan array binding signal (z-score within array); higher = stronger binding
# Conditions in all cases: glycan notation: IUPAC condensed, linker removed
# [1] = molecular target: Neu5Ac(a2-6)Gal(b1-4)GlcNAc(b1-3)Gal(b1-4)GlcNAc(b1-3)GalNAc
# Outline: (§1)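 The Consortium for Functional Glycomics database supplied 3228 glycan arrays, of which those lacking an available protein sequence were dropped. The binding signal, a within-array Z-score, was averaged across arrays of the same protein sequence and across linkers. Negative scores can be read as non-binding.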
# [2] = molecular target: Neu5Ac(a2-6)Gal(b1-4)GlcNAc(b1-3)Gal(b1-4)GlcNAc(b1-3)[Neu5Ac(a2-6)Gal(b1-4)GlcNAc(b1-3)Gal(b1-4)GlcNAc(b1-6)]GalNAc
# Outline: as §1
# [3] = molecular target: Neu5Ac(a2-6)Gal(b1-4)GlcNAc(b1-3)Gal(b1-4)GlcNAc(b1-6)[Gal(b1-3)]GalNAc
# Outline: as §1
# [4] = molecular target: Neu5Ac(a2-6)Gal(b1-4)GlcNAc(b1-3)Gal(b1-4)[Fuc(a1-3)]GlcNAc(b1-3)Gal(b1-4)[Fuc(a1-3)]GlcNAc
# Outline: as §1
# [5] = molecular target: Neu5Ac(a2-6)Gal(b1-4)GlcNAc(b1-3)GalNAc
# Outline: as §1
# [6] = molecular target: Neu5Ac(a2-6)Gal(b1-4)GlcNAc(b1-3)[Neu5Ac(a2-6)Gal(b1-4)GlcNAc(b1-6)]GalNAc
# Outline: as §1
# [7] = molecular target: Neu5Ac(a2-6)Gal(b1-4)GlcNAc(b1-6)GalNAc
# Outline: as §1
# [8] = molecular target: Neu5Ac(a2-6)Gal(b1-4)GlcNAc(b1-6)[Gal(b1-3)GlcNAc(b1-3)]Gal(b1-4)Glc
# Outline: as §1
# [9] = molecular target: Neu5Ac(a2-6)Gal(b1-4)GlcNAc(b1-6)[Gal(b1-3)]GalNAc
# Outline: as §1
# [10] = molecular target: Neu5Ac(a2-6)Gal(b1-4)GlcNAc6S
# Outline: as §1
# [11] = molecular target: Neu5Ac(a2-6)GalNAc
# Outline: as §1
# [12] = molecular target: Neu5Ac(a2-6)GalNAc(b1-4)GlcNAc
# Outline: as §1
# [13] = molecular target: Neu5Ac(a2-6)GalNAc(b1-4)GlcNAc6S
# Outline: as §1
# [14] = molecular target: Neu5Ac(a2-6)GlcNAc(b1-4)GlcNAc
# Outline: as §1
# [15] = molecular target: Neu5Ac(a2-6)GlcNAc(b1-4)GlcNAc(b1-4)GlcNAc
# Outline: as §1
# [16] = molecular target: Neu5Ac(a2-8)Neu5Ac
# Outline: as §1
# [17] = molecular target: Neu5Ac(a2-8)Neu5Ac(a2-3)Gal(b1-3)GalNAc(b1-4)[Neu5Ac(a2-3)]Gal(b1-4)Glc
# Outline: as §1
# [18] = molecular target: Neu5Ac(a2-8)Neu5Ac(a2-3)Gal(b1-3)GalNAc(b1-4)[Neu5Ac(a2-8)Neu5Ac(a2-3)]Gal(b1-4)Glc
# Outline: as §1
# [19] = molecular target: Neu5Ac(a2-8)Neu5Ac(a2-3)Gal(b1-4)Glc
# Outline: as §1
# [20] = molecular target: Neu5Ac(a2-8)Neu5Ac(a2-3)Gal(b1-4)GlcNAc
# Outline: as §1
# [21] = molecular target: Neu5Ac(a2-8)Neu5Ac(a2-3)[Gal(b1-3)GalNAc(b1-4)]Gal(b1-4)Glc
# Outline: as §1
# [22] = molecular target: Neu5Ac(a2-8)Neu5Ac(a2-3)[GalNAc(b1-4)]Gal(b1-4)Glc
# Outline: as §1
# [23] = molecular target: Neu5Ac(a2-8)Neu5Ac(a2-8)Neu5Ac
# Outline: as §1
# [24] = molecular target: Neu5Ac(a2-8)Neu5Ac(a2-8)Neu5Ac(a2-3)Gal(b1-4)Glc
# Outline: as §1
# [25] = molecular target: Neu5Ac(a2-8)Neu5Ac(a2-8)Neu5Ac(a2-3)[Gal(b1-3)GalNAc(b1-4)]Gal(b1-4)Glc
# Outline: as §1
# [26] = molecular target: Neu5Ac(a2-8)Neu5Ac(a2-8)Neu5Ac(a2-3)[GalNAc(b1-4)]Gal(b1-4)Glc
# Outline: as §1
# [27] = molecular target: Neu5Ac(a2-8)Neu5Ac(a2-8)Neu5Ac(a2-8)Neu5Ac(a2-3)[GalNAc(b1-4)]Gal(b1-4)Glc
# Outline: as §1
# [28] = molecular target: Neu5Ac(a2-8)Neu5Gc(a2-3)Gal(b1-4)GlcNAc
# Outline: as §1
# [29] = molecular target: Neu5Ac(b2-6)Gal(b1-4)GlcNAc
# Outline: as §1
# [30] = molecular target: Neu5Ac(b2-6)GalNAc
# Outline: as §1
# [31] = molecular target: Neu5Ac9Ac(a2-3)Gal(b1-3)GlcNAc
# Outline: as §1
# [32] = molecular target: Neu5Ac9Ac(a2-3)Gal(b1-4)GlcNAc
# Outline: as §1
# [33] = molecular target: Neu5Ac9Ac(a2-6)Gal(b1-4)GlcNAc
# Outline: as §1
# [34] = molecular target: Neu5Gc(a2-3)Gal(b1-3)GlcNAc
# Outline: as §1
# [35] = molecular target: Neu5Gc(a2-3)Gal(b1-3)[Fuc(a1-4)]GlcNAc
# Outline: as §1
# [36] = molecular target: Neu5Gc(a2-3)Gal(b1-4)Glc
# Outline: as §1
# [37] = molecular target: Neu5Gc(a2-3)Gal(b1-4)GlcNAc
# Outline: as §1
# [38] = molecular target: Neu5Gc(a2-3)Gal(b1-4)GlcNAc(b1-3)Gal(b1-4)GlcNAc(b1-2)Man(a1-3)[Neu5Gc(a2-3)Gal(b1-4)GlcNAc(b1-3)Gal(b1-4)GlcNAc(b1-2)Man(a1-6)]Man(b1-4)GlcNAc(b1-4)GlcNAc
# Outline: as §1
# [39] = molecular target: Neu5Gc(a2-3)Gal(b1-4)[Fuc(a1-3)]GlcNAc
# Outline: as §1
# [40] = molecular target: Neu5Gc(a2-6)Gal(b1-4)GlcNAc
# Outline: as §1
# [41] = molecular target: Neu5Gc(a2-6)GalNAc
# Outline: as §1
# [42] = molecular target: Neu5Gc(a2-8)Neu5Ac(a2-3)Gal(b1-4)GlcNAc
# Outline: as §1
# [43] = molecular target: Neu5Gc(a2-8)Neu5Gc(a2-3)Gal(b1-4)GlcNAc
# Outline: as §1
# [44] = molecular target: Neu5Gc(a2-8)Neu5Gc(a2-3)Gal(b1-4)GlcNAc(b1-3)Gal(b1-4)GlcNAc
# Outline: as §1
# [45] = molecular target: Neu5Gc(a2-8)Neu5Gc(a2-6)Gal(b1-4)GlcNAc
# Outline: as §1
# [46] = molecular target: Neu5Gc(b2-6)Gal(b1-4)GlcNAc
# Outline: as §1
binder,measurement,setting,value
"GroEL (Clostridium difficile), Q18CT5 (protein) MAKEIKFSEETRRALEAGVNKLADTVKVTLGPKGRNVILDKKFGSPLITNDGVTIAKEIELEDRFENMGAQLVKEVATKTNDVAGDGTTTATVLAQAIIREGLKNVTAGANPILLRKGIQKAVTVAVEELKNQSRIVETQEAISQVASISAGDEEVGKLIAEAMEIVGKDGVITVEESQTMNTELDAVEGMQFDRGFVSAYMVTDVDKMEAVLNDPYILITDKKISNIQELLPVLEQIVQQGKKLLIIAEDVEGEALSTLVVNKLRGTFDVVAVKAPGFGDRRKEMLQDIAILTGAQVISEELGYDLKEADLSMLGRASSVKVTKESTTIVDGSGDKKAIEDRVTQIKHQVEQTTSDFDREKLMERLAKLAGGVAVVKVGAATEVELKERKLRIEDALNATRAAVEEGIVAGGGTAFVSVIPAIGTLIESLEGEVKLGAQIVKKALEEPLRQIAINAGLEGAVIVQNVVNSEAETGFDALNEKYVNMIEAGIVDPTKVSRSALQNAASIASTFLTTEAAVADLPEKEDAGMPGMGGGMPGMM",glycan array binding signal (z-score),[1],-0.993
same,glycan array binding signal (z-score),[2],0.588
same,glycan array binding signal (z-score),[3],-0.565
same,glycan array binding signal (z-score),[4],-0.305
same,glycan array binding signal (z-score),[5],-0.444
same,glycan array binding signal (z-score),[6],-1.37
same,glycan array binding signal (z-score),[7],-0.56
same,glycan array binding signal (z-score),[8],-1.58
same,glycan array binding signal (z-score),[9],-0.766
same,glycan array binding signal (z-score),[10],-0.2
same,glycan array binding signal (z-score),[11],-0.935
same,glycan array binding signal (z-score),[12],1.25
same,glycan array binding signal (z-score),[13],1.08
same,glycan array binding signal (z-score),[14],-0.857
same,glycan array binding signal (z-score),[15],-0.077
same,glycan array binding signal (z-score),[16],-0.528
same,glycan array binding signal (z-score),[17],0.329
same,glycan array binding signal (z-score),[18],-0.904
same,glycan array binding signal (z-score),[19],-0.387
same,glycan array binding signal (z-score),[20],0.562
same,glycan array binding signal (z-score),[21],0.103
same,glycan array binding signal (z-score),[22],-0.079
same,glycan array binding signal (z-score),[23],0.028
same,glycan array binding signal (z-score),[24],1.2
same,glycan array binding signal (z-score),[25],-0.437
same,glycan array binding signal (z-score),[26],-0.254
same,glycan array binding signal (z-score),[27],1.71
same,glycan array binding signal (z-score),[28],-1.21
same,glycan array binding signal (z-score),[29],0.421
same,glycan array binding signal (z-score),[30],-0.894
same,glycan array binding signal (z-score),[31],-0.753
same,glycan array binding signal (z-score),[32],-1.33
same,glycan array binding signal (z-score),[33],-0.449
same,glycan array binding signal (z-score),[34],-0.004
same,glycan array binding signal (z-score),[35],0.412
same,glycan array binding signal (z-score),[36],2.02
same,glycan array binding signal (z-score),[37],-0.652
same,glycan array binding signal (z-score),[38],0.016
same,glycan array binding signal (z-score),[39],-0.437
same,glycan array binding signal (z-score),[40],1.41
same,glycan array binding signal (z-score),[41],-0.254
same,glycan array binding signal (z-score),[42],-0.545
same,glycan array binding signal (z-score),[43],-0.482
same,glycan array binding signal (z-score),[44],0.165
same,glycan array binding signal (z-score),[45],-0.471
same,glycan array binding signal (z-score),[46],0.305
